PubChem BioAssay AID1259254 | NCATS – 2017
Purpose: 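Finding genes that stop cells copying their DNA twice in one cycle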 (primary screen). System: human HCT116 colorectal cancer cells. Reagents: single siRNA against human genes. Duration: 3 days. Detection: 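Nuclei stained with Hoechst and imaged; cell-cycle phase assigned by DNA content; G2 share scaled per plate, non-targeting siRNA 0%, GMNN siRNA 100%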. Direction: G2 robust z-score and G2 cells, % of GMNN control: higher = more G2 cells, more excess DNA replication. Hit rule: 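An siRNA counts as active if its G2 robust z-score lies at least 5 MADs above the screen median; here such calls match roughly 38% of GMNN control or more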.
Here is a random part of about 59,000 reagents. In the full data, about 1,550 (2.6%) are marked active. 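G2 share is only a proxy for re-replication; each gene was hit by three separate siRNAs, and active genes were retested.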 Reagents against one gene are numbered here. Not all columns of the deposit are shown. The record does not give: the amount of reagent.

target,reagent no.,G2 robust z-score,"G2 cells, % of GMNN control",Call
KDF1 (keratinocyte differentiation factor 1),1,0.554,6.86,inactive
KDF1 (keratinocyte differentiation factor 1),2,0.388,5.7,inactive
KDF1 (keratinocyte differentiation factor 1),3,-0.73,-2.17,inactive
SOS2 (SOS Ras/Rho guanine nucleotide exchange factor 2),1,-0.35,0.503,inactive
SOS2 (SOS Ras/Rho guanine nucleotide exchange factor 2),2,-0.171,1.76,inactive
SOS2 (SOS Ras/Rho guanine nucleotide exchange factor 2),3,1.87,16.1,inactive
PGAM5,1,0.387,5.69,inactive
PGAM5,2,-0.341,0.571,inactive
PGAM5,3,0.00908,3.03,inactive
"HLA-B (major histocompatibility complex, class I, B)",1,1.38,12.7,inactive
"HLA-B (major histocompatibility complex, class I, B)",2,-0.345,0.537,inactive
"HLA-B (major histocompatibility complex, class I, B)",3,0.325,5.26,inactive
"HLA-B (major histocompatibility complex, class I, B)",4,-0.597,-1.23,inactive
"HLA-B (major histocompatibility complex, class I, B)",5,-0.459,-0.259,inactive
"HLA-B (major histocompatibility complex, class I, B)",6,-0.463,-0.29,inactive

5 successive reagents from above, quoted:
target,reagent no.,G2 robust z-score,"G2 cells, % of GMNN control",Call
PGAM5,1,0.387,5.69,inactive
PGAM5,2,-0.341,0.571,inactive
PGAM5,3,0.00908,3.03,inactive
"HLA-B (major histocompatibility complex, class I, B)",1,1.38,12.7,inactive
"HLA-B (major histocompatibility complex, class I, B)",2,-0.345,0.537,inactive

The listing continues.
target,reagent no.,G2 robust z-score,"G2 cells, % of GMNN control",Call
GPR179 (G protein-coupled receptor 179),1,2.06,17.5,inactive
GPR179 (G protein-coupled receptor 179),2,0.352,5.44,inactive
GPR179 (G protein-coupled receptor 179),3,-1.06,-4.47,inactive
PRAMEF14 (PRAME family member 14),1,-0.319,0.724,inactive
PRAMEF14 (PRAME family member 14),2,0.889,9.22,inactive
PRAMEF14 (PRAME family member 14),3,-0.665,-1.71,inactive
ELAVL4 (ELAV like RNA binding protein 4),1,-0.486,-0.454,inactive
ELAVL4 (ELAV like RNA binding protein 4),2,1.48,13.4,inactive
ELAVL4 (ELAV like RNA binding protein 4),3,-0.277,1.02,inactive
IQANK1 (IQ motif and ankyrin repeat containing 1),1,3.08,24.6,inactive
IQANK1 (IQ motif and ankyrin repeat containing 1),2,-0.795,-2.63,inactive
IQANK1 (IQ motif and ankyrin repeat containing 1),3,-0.182,1.69,inactive
PPP1R3C (protein phosphatase 1 regulatory subunit 3C),1,-0.317,0.74,inactive
PPP1R3C (protein phosphatase 1 regulatory subunit 3C),2,-0.00819,2.91,inactive
PPP1R3C (protein phosphatase 1 regulatory subunit 3C),3,-0.106,2.22,inactive
